Source: PubChem BioAssay AID504774 (Drosophila RNAi Screening Center, 2011)
Purpose: 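Fly genes whose loss alters survival after alkylation damage to DNA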 (primary screen). System: Drosophila Kc167 cells. Knock-down reagent: long dsRNA against Drosophila genes, about 0.25 µg dsRNA per well. Timing: about 6 days: 3 days knock-down, then 3 days with or without MMS. Conditions: methyl methanesulphonate 0.004% (w/v) for 3 days after knock-down. Detection: 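Viability in wells given MMS, read as ATP luminescence, normalised by quantiles plate by plate and averaged across replicates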. Direction: mean viability with MMS: higher = more surviving cells after MMS.
The screen tested about 23,000 reagents; shown is a random part of those with a known target gene and a result. 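Values are quantile-normalised luminescence on an arbitrary scale; higher means more cells surviving MMS.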 Reagents against one gene are numbered here. Further read-outs or replicates are left out here.

Knock-down of Cpr5C gave: mean viability with MMS 3.60e6. Nepl13 scored mean viability with MMS 3.76e6. Against CG2336, the entry reads mean viability with MMS 3.59e6. After knock-down of CG17359, the screen gave mean viability with MMS 3.41e6. Depletion of CG13311 gave: mean viability with MMS 3.50e6. Against CG30049 the deposit lists mean viability with MMS 3.68e6.

Silencing of nub #1 resulted in: mean viability with MMS 3.54e6. nub #2 gave mean viability with MMS 3.53e6. After knock-down of nub #3 the results were mean viability with MMS 3.55e6. With knock-down of nub #4, the screen gave mean viability with MMS 3.44e6. nub #5 scored mean viability with MMS 2.96e6. Against Rsf1 #1, the values are mean viability with MMS 3.58e6.

Knock-down of Rsf1 #2 came out at: mean viability with MMS 3.51e6. CG17593 scored mean viability with MMS 3.74e6. kcc #1 showed mean viability with MMS 3.51e6. Knock-down of kcc #2 gave: mean viability with MMS 3.48e6. After knock-down of CG9973 (retired record), the record shows mean viability with MMS 3.34e6. Knock-down of CG10395 resulted in: mean viability with MMS 3.50e6.

Depletion of CG8281 gave: mean viability with MMS 3.52e6. Against CG2059 the deposit lists mean viability with MMS 3.48e6. Against eIF4EHP #1, the entry reads mean viability with MMS 3.67e6. For eIF4EHP #2 the deposit lists mean viability with MMS 3.48e6. BigH1 gave mean viability with MMS 3.49e6. Knock-down of cv-c #1 resulted in: mean viability with MMS 3.61e6.

Against cv-c #2 the deposit lists mean viability with MMS 3.66e6. With knock-down of cv-c #3, the screen gave mean viability with MMS 3.26e6. Against cv-c #4, the entry reads mean viability with MMS 3.54e6. With knock-down of cv-c #5, the record shows mean viability with MMS 3.52e6. cv-c #6 scored mean viability with MMS 3.67e6. After knock-down of cv-c #7, the screen gave mean viability with MMS 3.76e6.

Against Fer3, the values are mean viability with MMS 3.56e6. Knock-down of CG6409 #1 came out at: mean viability with MMS 3.72e6. CG6409 #2 gave mean viability with MMS 3.48e6. For Snx21 the deposit lists mean viability with MMS 3.51e6. With knock-down of Fum1, the record shows mean viability with MMS 3.55e6.

No new results follow: an excerpt of the list.
CG6409 #1 | mean viability with MMS = 3.72e6
CG6409 #2 | mean viability with MMS = 3.48e6
Snx21 | mean viability with MMS = 3.51e6
